Test results from PubChem BioAssay AID504467 (National Center for Advancing Translational Sciences (NCATS), 2011).
Out of some 330,000 compounds screened, about 7,700 (2.3%) were called active. The shares of active, inactive and inconclusive entries below differ from those in the screen. Calls come from the whole dose curve; as a rule, active = well fitted inhibition curve with a large enough effect; inconclusive = small, poorly fitted or top-dose-only effect, or effect the other way; inactive = flat fitted curve, though single readings scatter. Where the call is inconclusive, the potency comes from a doubtful curve fit.

Assay: qHTS screen for small molecules that inhibit ELG1-dependent DNA repair in human embryonic kidney (HEK293T) cells expressing luciferase-tagged ELG1; note: nearly all actives have a fitted effect of over 55% in size
Settings: HEK293T ELG1-luciferase reporter, luminescence, 16 h, DNA damage induced by 5-fluorouridine; series mostly up to 46.1 µM
Procedure, shortened: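 Reporter activity after DNA damage by 5-fluorouridine is monitored. Compound-treated cells incubate 16 hr at 37 °C, then ONE-Glo is added for 30 min before luminescence reading.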
Potency is the fitted concentration of half-maximal effect.

Compound	Potency
CCN(Cc1nc(-c2ccc(OC)c(OC)c2)no1)C(=O)c1ccc2c(c1)OCO2	inactive
CC(=O)N1CCN(c2ccc(NC(=S)NC(=O)COc3ccc(C(C)(C)C)cc3)cc2)CC1	inconclusive: 1.3 µM [inhibitor, partial curve, poor fit]
COc1cc(OC)cc(C(=O)Nc2ccc(C(=O)Nc3ccccc3OC)cc2)c1	active: 16.4 µM
O=C(COC(=O)c1ccc(O)cc1)Nc1ccc2c(c1)OCCO2	inconclusive: 20.6 µM [activator, partial curve]
Cc1ccc(NC(=S)NC(=O)C2CCC2)cc1C	inconclusive: 14.6 µM [activator, partial curve]
O=C(N/N=C/c1ccco1)c1cc(=O)[nH]c2ccccc12	inconclusive: 23.1 µM [activator, partial curve, poor fit]
O=[N+]([O-])c1cccc(/C=N/Nc2nnc(-c3ccccc3)c(-c3ccccc3)n2)c1	inactive
O=C(NC1CCCCC1)C(c1ccc2ncccc2c1)N(Cc1ccc2c(c1)OCO2)C(=O)c1ccc2c(c1)OCCO2 (stereo not drawn)	inconclusive: 29.1 µM [inhibitor, single point]
O=C(Nc1ccncc1)c1cc(-c2ccccn2)nc2ccccc12	inactive
C/C(=N\NC(=O)CC(C)C)c1ccc(Cl)c(Cl)c1	inconclusive: 23.1 µM [activator, partial curve]
CC(C)(C)OC(=O)C[C@H]1C/C=C\C[C@H](CC(=O)N[C@H](CO)Cc2ccccc2)C(=O)N2CCC[C@@H]2COC1=O	inactive
CN1C[C@@H]2C(c3ccc(Cl)nc3)C3(c4cccnc4)CC2(C3)[C@H]1c1ccccc1 (stereo partly drawn)	inconclusive: 16.4 µM [activator, partial curve, poor fit]
O=C(N/N=C/c1cccc(O)c1)c1csc2ccccc12	inconclusive: 18.4 µM [activator, single point]
O=C(O)c1cccc(Nc2nc(N3CCOCC3)nc(N3CCOCC3)n2)c1	inactive
O=C(N/N=C(\c1ccccc1)c1ccccn1)c1cccc([N+](=O)[O-])c1	inconclusive: 18.3 µM [activator, single point]
O=C(c1ccc2c(=O)n(C3CCCC3)c(=S)[nH]c2c1)N1CCCCCC1	active: 1.83 µM
Cc1[nH]c2ccccc2c1SCC(=O)N1CCCc2ccccc21	inconclusive: 23.1 µM [inhibitor, partial curve, poor fit]
C=CCOC(=O)c1c(C)nc2cc3c(cc2c1C)OCO3	inconclusive: 4.11 µM [activator, full curve, poor fit]
Cc1ccc2cc3cc(C(=O)NC4CC4)oc3nc2c1	inconclusive: 5.17 µM [activator, full curve]
O=C(Cn1[nH]c(=O)c2ccccc2c1=O)N1CC=C(c2ccccc2)CC1	inconclusive: 16.4 µM [inhibitor, partial curve, poor fit]
Cc1cccn2c(=O)nc(SCC(=O)NCc3ccco3)nc12	inconclusive: 11.6 µM [activator, partial curve]
CC1CCN(S(=O)(=O)c2ccc3[nH]c(=O)[nH]c3c2)CC1	inactive
O=c1nc(Nc2cccc(Cl)c2)oc2cc(Cl)oc(=O)c12	inconclusive: 25.9 µM [activator, partial curve, poor fit]

Structures listed so far that contain a nitro group on carbon (two):
Compound	Potency
O=[N+]([O-])c1cccc(/C=N/Nc2nnc(-c3ccccc3)c(-c3ccccc3)n2)c1	inactive
O=C(N/N=C(\c1ccccc1)c1ccccn1)c1cccc([N+](=O)[O-])c1	inconclusive: 18.3 µM [activator, single point]

Reprinted from above for reference:
Compound	Potency
CCN(Cc1nc(-c2ccc(OC)c(OC)c2)no1)C(=O)c1ccc2c(c1)OCO2	inactive
CC(=O)N1CCN(c2ccc(NC(=S)NC(=O)COc3ccc(C(C)(C)C)cc3)cc2)CC1	inconclusive: 1.3 µM [inhibitor, partial curve, poor fit]

Continuation:

Compound	Potency
CCc1ccc(CN2CCCC(CCC(=O)N3CCN(c4ccccn4)CC3)C2)o1 (stereo not drawn)	inactive
Cc1cc(C)n2nc(SC(C)C(=O)N(C)c3ccccc3)nc2n1 (stereo not drawn)	inactive
O=C(c1ccc(NC(=S)NCc2ccc(Cl)cc2)cc1)N1CCCCC1	inconclusive: 29.1 µM [inhibitor, single point]
CC(=O)NCC(c1cccs1)S(=O)(=O)c1ccc(F)cc1 (stereo not drawn)	inactive
Cc1sc2nc(C(C)Sc3n[nH]c(N)n3)[nH]c(=O)c2c1C (stereo not drawn)	inactive
Cn1c(=O)[nH]c(=O)c2c1nc(NCCCn1ccnc1)n2Cc1ccccc1	inconclusive: 23.1 µM [activator, partial curve, poor fit]
O=C(/C=C/c1ccc([N+](=O)[O-])cc1)NCc1ccc2c(c1)OCO2	inconclusive: 18.3 µM [inhibitor, partial curve, poor fit]
C=Cc1ccc(CSc2cc(C)nc3nc(C)nn23)cc1	inconclusive: 18.3 µM [inhibitor, partial curve, poor fit]
CCN1CCN(C(CNS(=O)(=O)c2ccc(Cl)cc2)c2cccnc2)CC1 (stereo not drawn)	inactive
CCc1ccc(NC(=O)CCCN2C(=O)C3CC=CCC3C2=O)cc1 (stereo not drawn)	inactive
Cc1ccc2nc(N(CCCN(C)C)C(=O)c3ccc(S(=O)(=O)N(C)C)cc3)sc2c1	inactive
CC(C)(C)c1[nH]nc2c1C(c1ccccc1OC(=O)N1CCOCC1)C(C#N)=C(N)O2 (stereo not drawn)	inconclusive: 6.31 µM [inhibitor, single point]
Cc1ccc2nc(N3CCOCC3)c(C=O)cc2c1	inconclusive: 20.6 µM [activator, partial curve, poor fit]
Nc1ccc2[nH]ncc2c1	inconclusive: 16.4 µM [inhibitor, single point]
COC(=O)c1cccc(NC(=O)CN2CCC(NC(=O)c3cc(OC)c(OC)c(OC)c3)CC2)c1	inconclusive: 8.91 µM [inhibitor, partial curve, poor fit]
O=c1ccc(-c2ccc(S(=O)(=O)NCC3CCN(Cc4cccc(F)c4)CC3)s2)n[nH]1	inconclusive: 18.3 µM [inhibitor, partial curve, poor fit]
N#CC(=C1N=c2ccccc2=N1)c1c(O)[nH]c2ccccc12	inconclusive: 25.9 µM [activator, single point]
CCOc1ccc(NC(=O)CSc2nc(=O)n(Cc3ccccn3)c3c2CCC3)cc1	inconclusive: 18.3 µM [activator, single point]
COc1ccc(CC(=O)N/N=C(\C)c2cccs2)cc1OC	inconclusive: 29.1 µM [inhibitor, single point]
CCN(C(=O)C1CCCN(c2nc(-c3ccc(OC)cc3)no2)C1)c1ccccc1F (stereo not drawn)	inconclusive: 29.1 µM [inhibitor, single point]
COc1ccccc1/C=C(/NC(=O)c1ccccc1)C(=O)NCCCn1ccnc1	inconclusive: 23.1 µM [activator, single point]
CC(CN1CCN(C)CC1)OC(=O)c1cccc(Cl)c1 (stereo not drawn)	inactive
Cc1cc(C)c(NC(=O)COC(=O)C23CC4CC(CC(O)(C4)C2)C3)c(Cl)c1	inconclusive: 20.6 µM [inhibitor, partial curve]

Compound	Potency
COc1ccc(NCCc2ccccn2)cc1	inconclusive: 14.6 µM [activator, partial curve]
COc1ccccc1N1CCN(C(=O)c2ccc3[nH]c4c(c3c2)CC(C)CC4)CC1 (stereo not drawn)	inconclusive: 25.9 µM [inhibitor, single point]
CCc1nc(SCc2ccccc2C#N)n[nH]1	inactive
Cn1c(=O)n(C)c2cc(NS(=O)(=O)c3ccc(Cl)s3)ccc21	inconclusive: 18.3 µM [activator, partial curve]
C=CCN(c1ccccc1OC)S(=O)(=O)c1cccc(C(=O)OCC(=O)c2c[nH]c3ccccc23)c1	active: 23.1 µM
COc1ccc(CCNc2c3ccccc3nc3ccccc23)cc1OC	inconclusive: 13 µM [inhibitor, partial curve]
O=C(C1CCCC1)N1CCC(CC2CC(c3cccc(Br)c3)=NO2)(C(=O)NCC2CCCCC2)CC1 (stereo not drawn)	active: 4.11 µM
O=C(Nc1ccc(-c2noc(CCc3ccccc3)n2)cc1)c1ccco1	inconclusive: 2.91 µM [activator, partial curve]
CC(=O)Nc1ccc(S(=O)(=O)N(C)CC(=O)Nc2ccc(Br)cc2F)cc1	inconclusive: 3.66 µM [inhibitor, partial curve, poor fit]
COc1ccccc1-n1c(SCC(=O)NCc2ccc3c(c2)OCO3)nc2cc([N+](=O)[O-])ccc21	inconclusive: 16.4 µM [inhibitor, single point]
Cc1ccc(S(=O)(=O)Nc2ccc3[nH]ccc3c2)cc1	inconclusive: 32.6 µM [inhibitor, single point]
COc1cccc(NC(=O)CN(C)C(C)C(=O)NC(=O)NC2CCCCC2)c1 (stereo not drawn)	inactive
CCC1(CC)Cc2ccccc2-c2nc(CN3CCOCC3)[nH]c(=O)c21	inactive
Cc1oc(-c2ccc(Cl)cc2)nc1CN1CCCN(C(=O)c2ccco2)CC1	inconclusive: 29.1 µM [inhibitor, single point]
Cc1nc(Nc2ccccc2)[nH]c(=O)c1CCC(C)C	inconclusive: 20.6 µM [inhibitor, single point]
CCN(CC)c1ccc(/C=C2/C(=O)ON=C2C)cc1	inconclusive: 16.4 µM [activator, partial curve]
Cc1ccc(Sc2c([N+](=O)[O-])c(C)nn2C)cc1	inactive
Cc1ccccc1/C=N/Nc1nc2ccccc2[nH]1	inconclusive: 10.3 µM [activator, partial curve]
O=c1nc2ccccc2c2n1CC(CN1CCN(C(c3ccccc3)c3ccccc3)CC1)N2 (stereo not drawn)	inconclusive: 29.1 µM [inhibitor, single point]
O=C(NNC(=S)Nc1ccc(Cl)cc1)c1ccccc1OC(F)F	active: 23.1 µM
Cc1snc(S(=O)(=O)/C(C#N)=N/Nc2cccc(C(F)(F)F)c2)c1C#N	inactive
Cc1ccc(C(=O)O/N=C(\N)c2ccccc2)c(Cl)c1	inconclusive: 0.58 µM [activator, full curve]
